Primary screen of a compound library

Sequences of proteins named here, by UniProt entry; tags and fusion partners are left off.
UniProt E9BF75, entry or part of it: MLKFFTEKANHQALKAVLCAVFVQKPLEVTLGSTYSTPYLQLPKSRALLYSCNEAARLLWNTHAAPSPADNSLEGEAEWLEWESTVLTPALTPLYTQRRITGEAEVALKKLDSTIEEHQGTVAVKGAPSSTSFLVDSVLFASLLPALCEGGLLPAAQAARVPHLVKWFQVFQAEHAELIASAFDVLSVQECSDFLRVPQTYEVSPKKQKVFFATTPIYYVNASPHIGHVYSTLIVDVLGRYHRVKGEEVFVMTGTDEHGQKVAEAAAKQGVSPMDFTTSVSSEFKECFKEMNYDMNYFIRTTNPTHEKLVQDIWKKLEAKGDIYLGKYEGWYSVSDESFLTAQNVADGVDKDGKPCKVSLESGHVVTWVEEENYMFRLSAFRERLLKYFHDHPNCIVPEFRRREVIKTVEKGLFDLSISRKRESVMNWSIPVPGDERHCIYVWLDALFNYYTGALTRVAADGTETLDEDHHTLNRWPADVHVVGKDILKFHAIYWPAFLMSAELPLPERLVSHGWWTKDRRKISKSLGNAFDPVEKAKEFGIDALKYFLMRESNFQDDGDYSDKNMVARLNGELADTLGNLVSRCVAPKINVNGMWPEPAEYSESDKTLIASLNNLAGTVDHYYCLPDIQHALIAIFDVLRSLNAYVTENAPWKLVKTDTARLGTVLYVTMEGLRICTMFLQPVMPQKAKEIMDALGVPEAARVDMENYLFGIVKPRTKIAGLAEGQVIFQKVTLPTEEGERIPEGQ

From ChEMBL document CHEMBL3988442, “University of Dundee, Small-Polar-MMV Screening Library” (2021).

Mtb heat-shock: 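Assay on Mycobacterium tuberculosis, filed only as a heat shock assay from Cornell; the read-out is not stated. The concentration is filed as 10 mM, unlikely as a test dose, so the dose is not known. The record gives no direction; compounds that gave an IC50 in retests scored well above the rest, so higher reads as stronger inhibition. Size under these conditions: about 69,000 compounds, about 930 of them at 50% or above in at least one test.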
Mtb growth Cornell: 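Whole-cell assay for inhibitors of Mycobacterium tuberculosis growth, labelled Cornell in the record; the read-out is not stated. The concentration is filed as 10 mM, unlikely as a test dose, so the dose is not known. The record gives no direction; compounds strong in two other growth screens of this library score well above the rest, so higher reads as stronger inhibition. Of about 53,000 compounds tested this way, about 900 (1.7%) reached 50% or more in at least one test.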
LdMetRS: 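Primary screen of methionyl-tRNA synthetase; the read-out is not stated. Target: Methionyl-tRNA synthetase (putative), Leishmania donovani (UniProt E9BF75). The test concentration is not given. Values are per cent inhibition. Size under these conditions: about 68,000 compounds, about 24 of them at 50% or above in at least one test.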

Results are percentages, as filed.
The controls that fix the scale are not given in the record; negative values are as filed.
The compounds are a random part of those screened.
A dash means the value is not listed here; it may have been measured.

| # | SMILES | Mtb heat-shock | Mtb growth Cornell | LdMetRS |
|---|---|---|---|---|
| 1 | `COc1cccc(CCCN2CCC(N(C)S(C)(=O)=O)CC2)c1` | 12.86 | 20.88 | 6.597 |
| 2 | `CCn1nc(CC(C)C)cc1C(=O)N1CC(c2ccncc2)C1` | -37.05 | - | - |
| 3 | `Cc1cc(C(=O)N2CCCC3(COCCN(CCN(C)C)C3)C2)no1.O=C(O)C(F)(F)F.O=C(O)C(F)(F)F` (configuration not stated) | -27.12 | 8.209 | - |
| 4 | `N#Cc1ccc(CN2CCN(C(=O)C3CCC3)[C@@H]3CS(=O)(=O)C[C@@H]32)cc1` | - | - | 9.449 |
| 5 | `Cc1ccnn1CC(=O)Nc1cc(-c2ccncc2)[nH]n1` | -13.72 | - | 8.271 |
| 6 | `Cc1nc(CN2CCCC(NCc3ccc4c(c3)CCO4)C2)no1` (configuration not stated) | -24.79 | -11.21 | 3.134 |
| 7 | `CC(=O)N(Cc1c(F)cccc1F)C1CCCC1` | 12.5 | -6.989 | 3.819 |
| 8 | `Cc1noc(C)c1CN(C)C(=O)NC(C)Cc1ccco1` (configuration not stated) | -8.099 | 1.858 | 10.13 |
| 9 | `CCc1nc(C)c(C(=O)N(C)Cc2cnn(-c3cccc(OC)c3)c2)s1` | -4.732 | 15.94 | 5.319 |
| 10 | `Cc1cnn(CC2CCCN2Cc2coc(-c3cccc(F)c3)n2)c1` (configuration not stated) | 7.759 | 42.46 | 22.16 |
| 11 | `Cc1ccccc1CCCN(Cc1ccccn1)S(C)(=O)=O` | 2.25 | 11.6 | 7.532 |
| 12 | `Cc1nc(C)c(C(C)NCc2cnc(N3CCOCC3)nc2)s1.Cl` (configuration not stated) | -16.16 | - | - |
| 13 | `CCS(=O)(=O)N1C[C@@H](O)[C@H](Oc2cccc(F)c2)C1` | -10.59 | 12.53 | 14.92 |
| 14 | `CC(=O)CCC(=O)N1CCC2(CC1)N=C(CCC(C)C)NC2=O` | 15.31 | -23.92 | 8.193 |
| 15 | `CC(C)Cc1cc(CNC(=O)C2CCCN(Cc3ccco3)C2)no1` (configuration not stated) | 12.57 | 19.39 | 10.76 |
| 16 | `CN(C)S(=O)(=O)CCCN1CCc2c(ncn2C2CC2)C1` | 0.7633 | -6.783 | 7.692 |
| 17 | `Cn1ccnc1CNC(=O)c1cnc(C2CCNCC2)cn1` | - | - | 7.812 |
| 18 | `O=c1ccc(-c2cccs2)nn1CN1CCN(Cc2ccccc2)CC1` | 7.224 | - | 8.714 |
| 19 | `Cc1ccc(CNC(c2ccccc2)c2nccn2C)cc1C` (configuration not stated) | 103.6 | 28.02 | 16.83 |
| 20 | `[H][C@@]12COC[C@@H](CC(=O)N3CCN(C)CC3)[C@]1([H])CN(c1ccncn1)C2` | 2.646 | -23.29 | - |
| 21 | `COc1ccc(CCC2CCCN(C(=O)CCc3cc(O)no3)C2)cc1` (configuration not stated) | -14.39 | 10.49 | 8.602 |
| 22 | `COc1ccc(Cn2cc(C(=O)N(C)Cc3ccon3)nn2)cc1` | 7.83 | 41.35 | 8.579 |
| 23 | `Cc1cc(CN(C)Cc2ncc(-c3cccs3)o2)no1` | 17.56 | 30.56 | 9.424 |
| 24 | `Cc1occc1C(=O)N1CCC2(CC1)CC(OCc1ccccn1)CO2` (configuration not stated) | - | - | 6.468 |
| 25 | `COCC(=O)N1CCN(Cc2csc(-c3ncccn3)n2)CC1` | -25.03 | -3.819 | 21.75 |
| 26 | `O=C(O)C(F)(F)F.O=S(=O)(c1ccccc1)N1CCC2(CCCN2Cc2cccc(Cl)c2)C1` (configuration not stated) | 7.023 | 46.31 | - |
| 27 | `CCN1CCC2(COCc3c(C)nc(N(C)C)nc32)C1` (configuration not stated) | -23.37 | - | 9.934 |
| 28 | `Cc1ccc(NC(=O)N2CCCC(N(C)C)C2)c(Br)c1` (configuration not stated) | -15.37 | 10.72 | 7.843 |
| 29 | `Cc1nsc(N2CCN(C(=O)Nc3cccc(F)c3)CC2)n1` | -15.83 | -0.449 | 5.16 |
| 30 | `O=C(NCc1ccco1)[C@H]1CC[C@@H]2[C@@H](CCN2c2ncccn2)O1` | - | - | 3.268 |
| 31 | `[H][C@@]12COC[C@]1(COCC1CC1)CN(S(=O)(=O)c1cccnc1)C2` | -27.85 | 5.784 | - |
| 32 | `CN1CCCC1c1ccnc2nccn12` (configuration not stated) | -2.215 | 43.79 | 9.302 |
| 33 | `O=C(NCc1cccs1)NCC(O)c1ccoc1` (configuration not stated) | -3.316 | 18.49 | 20.33 |
| 34 | `CC(C)C(C)NC(=O)Nc1cccn(C)c1=O` (configuration not stated) | -21.08 | -26.05 | -2.198 |
| 35 | `CSc1ccc(C(C(=O)O)N2CCC(C(=O)N3CCCC3)CC2)cc1` (configuration not stated) | -21.9 | -7.213 | 18.75 |
| 36 | `CC(C)OCCNC1(c2ccc(Cl)cc2)CCOCC1` | -6.399 | 39.25 | 9.429 |
| 37 | `COCCn1c2c(ccc1=O)CCN(C(=O)Cc1ccsc1)CC2` | 36.71 | -4.67 | 9.89 |
| 38 | `Cc1cc(CN2CCN(C(=O)NCc3ccoc3)CC2)no1` | 10.22 | - | 7.831 |
| 39 | `CC(C)Oc1ccc(CNC(=O)C2CCC(=O)N2)cn1` (configuration not stated) | -21.93 | 7.52 | 5.442 |
| 40 | `[H][C@]12CC[C@]([H])(CN(Cc3cscn3)C1)N(C(=O)CSc1ccccn1)C2` | -0.5196 | 30.69 | - |
| 41 | `CCN(C(=O)CN1CCN(CC(C)O)CC1)C1=CCCCC1` (configuration not stated) | -18.16 | - | 9.041 |
| 42 | `Cl.Fc1ccc(F)c(CN2CCC(c3cc4ncccc4cn3)CC2)c1` | 103.6 | 106.2 | - |
| 43 | `Cc1cccnc1NCCNC(=O)c1cnc(-c2ccccn2)nc1O` | 4.433 | -28.91 | 16.88 |